Data source: PubChem BioAssay AID652259 (Drosophila RNAi Screening Center, 2013)
Test: 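Identify new Wingless signalling regulators in fly cells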 (primary screen). System: Drosophila clone 8 imaginal disc epithelial cells. Knock-down reagent: long dsRNA against Drosophila genes. Challenge: pathway stimulated by co-transfected Wingless expression plasmid. Measurement: 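Dual luciferase reads per well after Wingless plasmid stimulation: reporter firefly light and Renilla control light; activity is firefly divided by Renilla, a ratio not deposited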. Direction: firefly reporter light: higher = more Wg reporter light, before normalisation; Renilla control light: higher = more transfected or surviving cells. Rule for the call: 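a knock-down is a candidate when at least two out of four statistical tests show it departing from its plate mean; one test alone signals a weak candidate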. Calls: active = candidate regulator (raises or lowers reporter); inactive = not a candidate.
In all, the deposit lists about 22,000 reagents; below is an unselected part of those that have a named target and a result. In the full data, 233 (1.1%) are marked active. 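Light values are raw, unnormalised plate reads; the ratio scores behind the reporter calls were not deposited.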 Unmarked entries are inactive. Reagents against one gene are numbered here. A plus sign joins genes that one reagent is predicted to hit. No sequences are given here. The record does not give: the amount of reagent, the time to read-out, the dose of the treatment.

target	reagent no.	reporter change call, replicate 1	firefly reporter light, replicate 1	firefly reporter light, replicate 2	Renilla control light, replicate 1	Renilla control light, replicate 2
CG18004	1		24120		5572	
CG17544	1		6932		2568	
CR31292	1		4418		1501	
l(3)72Dp	1		5944		2936	
Cpr57A + Obp57d	1		7834		2054	
Cpr57A + Obp57d	2		4.18e5	3.68e5	1.19e5	1.27e5
ttk	1		3783		1248	
ttk	2		9485		8528	
CG12259	1		2826		1651	
Gdap2	1		3104	10247	1094	3577
Gdap2	2		3072	8825	700	3523
promL	1		3862		1018	
AttC	1		5997		2502	
CG9702	1		9500		3708	
Deaf1	1		24695		7264	
Deaf1	2		6.19e5	7.25e5	1.54e5	1.70e5
ng2	1		16452		14498	
Sec20	1	Wg reporter activity lowered (active)	7261		3927	
CG34425	1		18450		5876	
CG34425	2		6.68e5	5.95e5	2.72e5	2.56e5
Ir75b	1		7008		2786	
CR18275 + CR18166 + CG32817	1		4337		1920	
Qsox4	1		2426	4396	1305	1731
Sec61alpha	1		17698		4977	
ND-B14.5A	1		23495		24523	
CG14569	1		25797		8757	
Nep4	1		3394	4832	1216	1432
CG8526	1		18344		4908	
CG34115	1		27447		13584	
Helz	1		4841		1853	
CG11122	1		4705	9620	1594	4027
CG11596	1		2119	8282	1050	2269

9 consecutive entries already listed, for reference:
target	reagent no.	reporter change call, replicate 1	firefly reporter light, replicate 1	firefly reporter light, replicate 2	Renilla control light, replicate 1	Renilla control light, replicate 2
CG34425	1		18450		5876	
CG34425	2		6.68e5	5.95e5	2.72e5	2.56e5
Ir75b	1		7008		2786	
CR18275 + CR18166 + CG32817	1		4337		1920	
Qsox4	1		2426	4396	1305	1731
Sec61alpha	1		17698		4977	
ND-B14.5A	1		23495		24523	
CG14569	1		25797		8757	
Nep4	1		3394	4832	1216	1432

Additional records follow:
target	reagent no.	reporter change call, replicate 1	firefly reporter light, replicate 1	firefly reporter light, replicate 2	Renilla control light, replicate 1	Renilla control light, replicate 2
CG15358	1		3144	6621	1349	2660
CG42335	1		31465		4966	
CG42335	2		30481		5254	
SecS	1		11915		2726	
Usp30	1		27840		8746	
CG8560	1		6568		2488	
CG1236	1		9937		4039	
phr6-4	1		3427	8541	1016	3400
CG9853	1		8784		3488	
CG9853	2		6.36e5	5.93e5	1.72e5	2.13e5
Fdx1	1		9548		3875	
CG6294 + CG6299	1		19821		8509	
Alms1a	1		16570		7813	
Alg9	1		3216	8096	1636	2916
rdx	1		15220		1171	
rdx	2		12080		2029	
Bgb	1		12738		3314	
GEFmeso	1		12925		3817	
GEFmeso	2		5506		2018	
GEFmeso	3		3.85e5	4.42e5	2.34e5	1.61e5
CG33230	1		11490		3541	
MED19	1		4721		1205	
CG32647	1		14620		8500	
CG32647	2		12180		7189	
SPR	1		3712		888	
SPR	2		26147		12666	
SPR	3		21442		10545	
SPR	4		4.42e5	4.11e5	2.10e5	1.63e5
Remo	1		16752		12869	
CG6937 + btn	1		12130		7347	
not	1		4294		1734	
Idgf5	1		12578		3880	
CG1572	1		2956	8017	1446	3237
CG13284	1		3034	8873	1100	3067
Elo68beta	1		9573		3888	
l(2)k10201	1		2957	7372	721	3267
l(2)k10201	2		2498	7255	617	2520
Or47b	1		5410		2291	
DUBAI	1		4186		1571	
RSG7	1		25840		11280	
RSG7	2		5.13e5	5.47e5	2.01e5	2.20e5
